No constants are given. Whether binding was seen depends on the method and setting. Binding seen in cells or lysates may run through a third protein. Some results given as binding are weak or reduced against the parent protein; the word gives no strength.
Biological target: T1, Transmembrane 4 L six family member 1 (TM4SF1) (human (endogenous in PANC-1 and AsPC-1)) (UniProt P30408)
T1 sequence: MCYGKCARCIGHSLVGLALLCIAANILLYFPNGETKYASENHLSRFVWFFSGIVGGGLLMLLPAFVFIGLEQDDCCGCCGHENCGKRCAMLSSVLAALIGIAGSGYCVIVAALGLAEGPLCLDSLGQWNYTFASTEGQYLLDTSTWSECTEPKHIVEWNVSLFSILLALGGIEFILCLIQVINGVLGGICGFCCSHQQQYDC
Assay: co-IP; PANC-1 and AsPC-1 cells lysed in IP lysis buffer; lysates incubated with antibodies overnight at 4 C; Protein A/G PLUS Agarose beads 10 h at 4 C; washed three times with lysis buffer; western blot

The chains behind the UniProt entries cited, without tags or fusion partners. Residues count along the entry.
UniProt Q08345, residues 19-913: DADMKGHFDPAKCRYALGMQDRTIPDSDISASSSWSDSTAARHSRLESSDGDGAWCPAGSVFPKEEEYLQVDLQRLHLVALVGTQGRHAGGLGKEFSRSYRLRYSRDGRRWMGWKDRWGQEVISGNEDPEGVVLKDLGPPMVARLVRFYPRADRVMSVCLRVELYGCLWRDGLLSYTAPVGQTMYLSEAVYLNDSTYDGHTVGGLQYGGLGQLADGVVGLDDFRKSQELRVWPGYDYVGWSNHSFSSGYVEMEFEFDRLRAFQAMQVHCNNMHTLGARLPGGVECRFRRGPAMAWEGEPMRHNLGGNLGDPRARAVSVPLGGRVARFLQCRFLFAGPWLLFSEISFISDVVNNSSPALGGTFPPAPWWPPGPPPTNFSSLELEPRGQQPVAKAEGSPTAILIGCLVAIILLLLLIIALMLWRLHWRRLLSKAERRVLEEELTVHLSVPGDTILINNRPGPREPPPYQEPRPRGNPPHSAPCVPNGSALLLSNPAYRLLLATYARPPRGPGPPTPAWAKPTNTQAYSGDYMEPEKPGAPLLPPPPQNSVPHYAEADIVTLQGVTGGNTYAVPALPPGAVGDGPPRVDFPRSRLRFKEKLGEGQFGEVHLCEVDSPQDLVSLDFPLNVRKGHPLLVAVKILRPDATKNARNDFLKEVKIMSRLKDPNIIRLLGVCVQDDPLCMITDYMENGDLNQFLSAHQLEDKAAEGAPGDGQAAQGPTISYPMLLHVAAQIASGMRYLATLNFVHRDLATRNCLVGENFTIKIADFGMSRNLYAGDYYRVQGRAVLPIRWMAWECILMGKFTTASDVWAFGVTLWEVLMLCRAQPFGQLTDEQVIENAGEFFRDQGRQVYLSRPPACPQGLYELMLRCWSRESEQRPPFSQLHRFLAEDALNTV

Substance: Discoidin Domain Receptor 1 (DDR1) (from UniProt Q08345 19-913)
- binding: binds

Reference: article PMC5377454
